According to publication PMC5852209:

Assays:
[1] = target: T1, PmDAM6-YFP^C (Prunus mume) (UniProt B9A1S9); assay: split reporter; BiFC with split YFP (pCambia1300-YFP-C and pCambia1300-YFP-N), coexpression in leaves of Nicotiana benthamiana, confocal microscopy, YFP excited at 514 nm
T1 sequence: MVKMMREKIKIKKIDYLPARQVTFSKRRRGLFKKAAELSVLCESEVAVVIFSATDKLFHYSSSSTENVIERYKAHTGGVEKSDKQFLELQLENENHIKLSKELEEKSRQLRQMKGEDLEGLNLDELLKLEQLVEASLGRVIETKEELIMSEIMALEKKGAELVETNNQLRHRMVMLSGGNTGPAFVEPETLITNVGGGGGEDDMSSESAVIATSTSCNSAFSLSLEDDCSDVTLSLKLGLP

[2] = target: T2, PmDAM4-YFP^C (Prunus mume) (UniProt G1UE22); assay: as above
T2 sequence: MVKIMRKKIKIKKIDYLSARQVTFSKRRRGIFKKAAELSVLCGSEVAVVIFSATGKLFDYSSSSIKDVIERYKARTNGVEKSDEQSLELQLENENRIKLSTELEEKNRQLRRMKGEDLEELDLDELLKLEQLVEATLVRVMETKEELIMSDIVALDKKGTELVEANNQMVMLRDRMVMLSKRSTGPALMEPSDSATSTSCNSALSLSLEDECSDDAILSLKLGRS

[3] = target: T3, PmDAM1-YFP^N (Prunus mume) (UniProt G1UE19); assay: as above
T3 sequence: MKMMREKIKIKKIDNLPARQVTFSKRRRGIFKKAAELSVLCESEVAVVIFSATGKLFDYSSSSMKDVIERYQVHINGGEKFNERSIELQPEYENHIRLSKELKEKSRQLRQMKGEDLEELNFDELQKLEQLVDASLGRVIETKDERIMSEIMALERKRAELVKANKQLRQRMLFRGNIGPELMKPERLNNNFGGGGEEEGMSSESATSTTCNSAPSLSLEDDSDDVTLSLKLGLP

PmDAM1 (Prunus mume) = target: T4, PmDAM1 (Prunus mume) (UniProt G1UE19); assay: two-hybrid; full length cDNAs in pGBKT7 bait vector and pGADT7 prey vector; each interaction analysis performed three times
T4 sequence: T3 sequence

PmDAM6 (Prunus mume) = target: T5, PmDAM6 (Prunus mume) (UniProt B9A1S9); assay: as above
T5 sequence: T1 sequence

[4] = target: T6, PmDAM2-YFP^N (Prunus mume) (UniProt G1UE20); assay: split reporter; BiFC with split YFP (pCambia1300-YFP-C and pCambia1300-YFP-N), coexpression in leaves of Nicotiana benthamiana, confocal microscopy, YFP excited at 514 nm
T6 sequence: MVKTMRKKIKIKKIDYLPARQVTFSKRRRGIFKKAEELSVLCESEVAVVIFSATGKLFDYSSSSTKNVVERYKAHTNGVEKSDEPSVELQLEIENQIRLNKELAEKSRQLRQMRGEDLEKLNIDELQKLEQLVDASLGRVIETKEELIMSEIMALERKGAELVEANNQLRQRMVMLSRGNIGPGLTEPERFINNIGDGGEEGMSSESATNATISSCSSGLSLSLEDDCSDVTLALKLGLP

| Substance | binding [1] | binding [3] | also measured |
| --- | --- | --- | --- |
| PmCBF6-YFP^N (Prunus mume) | no binding |  |  |
| PmCBF5-YFP^N (Prunus mume) | binds |  | binding [2]: no binding |
| PmCBF6-YFP^C (Prunus mume) |  | no binding |  |
| PmCBF5 (Prunus mume) |  |  | binding (PmDAM1 (Prunus mume)): binds; binding (PmDAM6 (Prunus mume)): binds |
| PmCBF5-YFP^C (Prunus mume) |  | binds | binding [4]: no binding |

No constants are given. Whether binding was seen depends on the method and setting. For some assays here: Binding can be weak; no strength is given. For some assays here: In cells and extracts the contact can be indirect. For some assays here: Sequences can lack the tags named with a protein.
